According to paper PMC12431657, “Discovery and mechanistic insights of dibenzoylmethane as a broad spectrum inhibitor of coronavirus” (PLOS Pathogens, 2025):
Counter-ions that a name gives are not always drawn. Like-named read-outs stand apart in the source and are kept apart here. About 60 (2%) of roughly 3,300 compounds showed an effect of 50% or more. This is one part of the list. Square brackets hold non-standard residues; d marks the D form. Peptide text beside a SMILES is read from it. * marks the point of attachment. Sta = CC(C)C[C@H](N)[C@@H](O)CC(=O)O; Isovaleryl = CC(C)CC(=O)*

Tested on: HCoV-OC43
Set-up: species or system RD; HTS, protection from HCoV-OC43 induced cell death, luminescent cell viability (CellCounting-Lite 2.0), inhibition rate
Details: 24 h post infection, 1 h compound pre-incubation, 10 µM, inhibitor

| SMILES | OC43 Inhibition rate [%] | OC43 Inhibition rate (OC43 Inhibition rate, 24 h) [%] |
| --- | --- | --- |
| CO[C@H]1C[C@H](O[C@H]2CC[C@@]3(C)C(=CC[C@]4(O)[C@@H]3C[C@@H](OC(=O)c3ccc(O)cc3)[C@@]3(C)[C@]4(O)CC[C@@]3(O)C(C)=O)C2)O[C@H](C)[C@H]1O[C@H]1C[C@H](OC)[C@H](O[C@H]2C[C@@H](OC)[C@H](O)[C@@H](C)O2)[C@@H](C)O1 [Qingyangshengenin A] | 1.5 |  |
| CC(=O)NCCc1cnc[nH]1 [N-Acetylhistamine] | -0.2 |  |
| CN(CC(=O)O)C(=N)NP(=O)(O)O [Phosphocreatine (disodium)] | -1.7 |  |
| O=C(O)CCCCCCCCCCCCCCC(=O)O [Hexadecanedioic acid] | 4.8 |  |
| C=C1CC[C@H]2C(=C)CC[C@H]3C(=C)C(=O)O[C@@H]3[C@@H]12 [Dehydrocostus Lactone] | 38.6 |  |
| C[C@H](CCC(=O)O)[C@H]1CC[C@H]2[C@@H]3C(=O)C[C@@H]4C[C@H](O)CC[C@]4(C)[C@H]3C[C@H](O)[C@]12C [7-keto-Deoxycholic acid] | 13.3 |  |
| CC(C)c1ccc(C=O)cc1 [Cuminaldehyde] | -1.7 |  |
| C/C=C/SC[C@H](NC(=O)CC[C@H](N)C(=O)O)C(=O)O [γ-Glutamyl-S-1-propenyl cysteine] | 2.8 |  |
| Cc1c[nH]c(=O)[nH]c1=O [Thymine] | -0.6 |  |
| C=C1CC[C@@H]2[C@](C)(COC(=O)CCC(=O)O)[C@H](OC(=O)CCC(=O)O)CC[C@@]2(C)[C@@H]1/C=C/C1=CCOC1=O [Kalii Dehydrographolidi Succinas] | -0.2 |  |
| C/C=C(/C)C(=O)O[C@H]1[C@@H](OC(C)=O)c2c(ccc3ccc(=O)oc23)OC1(C)C [Praeruptorin A] | 0.8 |  |
| CC(=O)Nc1ccn([C@@H]2O[C@H](CO)[C@@H](O)[C@H]2O)c(=O)n1 [N4-Acetylcytidine] | -5.6 |  |
| C/C=C/C/C=C/CCC(=O)[C@H]1O[C@H]1C(N)=O [Cerulenin] | 1.1 |  |
| C=C1C[C@@]23CC[C@H]4[C@@](C)(CCC[C@@]4(C)C(=O)O)[C@@H]2CC[C@]1(O[C@@H]1O[C@H](CO)[C@@H](O)[C@H](O)[C@H]1O[C@@H]1O[C@H](CO)[C@@H](O)[C@H](O)[C@H]1O)C3 [Steviolbioside] | -0.6 |  |
| CC1(C)CC[C@]2(C(=O)O[C@@H]3O[C@H](CO)[C@@H](O)[C@H](O)[C@H]3O)CC[C@]3(C)C(=CC[C@@H]4[C@@]5(C)CC[C@H](O[C@@H]6O[C@H](C(=O)O)[C@@H](O[C@@H]7O[C@@H](CO)[C@H](O)[C@H]7O)[C@H](O)[C@H]6O)C(C)(C)[C@@H]5CC[C@]43C)[C@@H]2C1 [Araloside A] | 1.5 |  |
| COc1cccc2c1cc([N+](=O)[O-])c1c(C(=O)O)cc3c(c12)OCO3 [Aristolochic acid A] | 2.7 |  |
| Oc1cc(O)c2c(c1)O[C@H](c1ccc(O)c(O)c1)[C@H](O)[C@H]2c1c(O)cc(O)c2c1O[C@H](c1ccc(O)c(O)c1)[C@H](O)[C@H]2c1c(O)cc(O)c2c1O[C@H](c1ccc(O)c(O)c1)[C@H](O)C2 [Procyanidin C1] | -0.5 |  |
| C[C@H]1O[C@@H](Oc2ccc(COC(=O)CC(O)(CC(=O)OCc3ccc(O[C@@H]4O[C@H](CO)[C@@H](O)[C@H](O)[C@H]4O)cc3)C(=O)Oc3ccc(O[C@H]4O[C@H](CO)[C@@H](O)[C@H](O)[C@H]4O)cc3)cc2)[C@H](O)[C@@H](O)[C@@H]1O (some centres unmarked) [Parishin] | -0.2 |  |
| O=c1c(-c2ccc(O[C@@H]3O[C@H](CO)[C@@H](O)[C@H](O)[C@H]3O)cc2)coc2cc(O)cc(O)c12 [Sophoricoside] | 0.7 |  |
| CCCCCCCCCCCCCCCC=O [Hexadecanal] | -0.6 |  |
| NCCCC[C@H](N)C(=O)O [L-Lysine hydrochloride] |  | -7.3 |
| C[C@@H]1O[C@@H](O[C@H]2[C@H](Oc3cc(O)c4c(c3)O[C@H](c3ccc(O)c(O)c3)CC4=O)O[C@H](CO)[C@@H](O)[C@@H]2O)[C@H](O)[C@H](O)[C@H]1O [Neoeriocitrin] | -2.2 |  |
| O=C(O)C(O)c1ccc(O)c(O)c1 (centres unmarked) [3,4-Dihydroxymandelic acid] | -0.2 |  |
| O=C(O)c1ncccc1O [3-Hydroxypicolinic acid] | 0.1 |  |
| COc1ccc(O)c(N)c1 [2-Amino-4-methoxyphenol] | 3.4 |  |
| CC[C@H]1CN2CC[C@H]1C[C@H]2[C@H](O)c1ccnc2ccc(OC)cc12 [Hydroquinine] | 0 |  |
| CC(=O)CCc1ccc(O[C@@H]2O[C@H](CO)[C@@H](O)[C@H](O)[C@H]2O)cc1 [Raspberry ketone glucoside] | 0.7 |  |

A section from further up, for reference:

| SMILES | OC43 Inhibition rate [%] | OC43 Inhibition rate (OC43 Inhibition rate, 24 h) [%] |
| --- | --- | --- |
| C=C1CC[C@H]2C(=C)CC[C@H]3C(=C)C(=O)O[C@@H]3[C@@H]12 [Dehydrocostus Lactone] | 38.6 |  |
| C[C@H](CCC(=O)O)[C@H]1CC[C@H]2[C@@H]3C(=O)C[C@@H]4C[C@H](O)CC[C@]4(C)[C@H]3C[C@H](O)[C@]12C [7-keto-Deoxycholic acid] | 13.3 |  |
| CC(C)c1ccc(C=O)cc1 [Cuminaldehyde] | -1.7 |  |
| C/C=C/SC[C@H](NC(=O)CC[C@H](N)C(=O)O)C(=O)O [γ-Glutamyl-S-1-propenyl cysteine] | 2.8 |  |
| Cc1c[nH]c(=O)[nH]c1=O [Thymine] | -0.6 |  |
| C=C1CC[C@@H]2[C@](C)(COC(=O)CCC(=O)O)[C@H](OC(=O)CCC(=O)O)CC[C@@]2(C)[C@@H]1/C=C/C1=CCOC1=O [Kalii Dehydrographolidi Succinas] | -0.2 |  |
| C/C=C(/C)C(=O)O[C@H]1[C@@H](OC(C)=O)c2c(ccc3ccc(=O)oc23)OC1(C)C [Praeruptorin A] | 0.8 |  |
| CC(=O)Nc1ccn([C@@H]2O[C@H](CO)[C@@H](O)[C@H]2O)c(=O)n1 [N4-Acetylcytidine] | -5.6 |  |
| C/C=C/C/C=C/CCC(=O)[C@H]1O[C@H]1C(N)=O [Cerulenin] | 1.1 |  |
| C=C1C[C@@]23CC[C@H]4[C@@](C)(CCC[C@@]4(C)C(=O)O)[C@@H]2CC[C@]1(O[C@@H]1O[C@H](CO)[C@@H](O)[C@H](O)[C@H]1O[C@@H]1O[C@H](CO)[C@@H](O)[C@H](O)[C@H]1O)C3 [Steviolbioside] | -0.6 |  |

Following part:

| SMILES | OC43 Inhibition rate [%] | OC43 Inhibition rate (OC43 Inhibition rate, 24 h) [%] |
| --- | --- | --- |
| O=c1cc(-c2ccc(O)c(O)c2)oc2c([C@@H]3O[C@H](CO)[C@@H](O)[C@H](O)[C@H]3O)c(O)cc(O)c12 [Orientin] | 1.6 |  |
| CCCCC/C=C\C/C=C\C/C=C\C/C=C\CCCC(=O)O [Arachidonic acid] | 1.2 |  |
| OC[C@H]1O[C@@](CO)(OC[C@@]2(OC[C@@]3(OC[C@@]4(OC[C@@]5(OC[C@@]6(OC[C@@]7(O[C@H]8O[C@H](CO)[C@@H](O)[C@H](O)[C@H]8O)O[C@H](CO)[C@@H](O)[C@@H]7O)O[C@H](CO)[C@@H](O)[C@@H]6O)O[C@H](CO)[C@@H](O)[C@@H]5O)O[C@H](CO)[C@@H](O)[C@@H]4O)O[C@H](CO)[C@@H](O)[C@@H]3O)O[C@H](CO)[C@@H](O)[C@@H]2O)[C@@H](O)[C@@H]1O [Fructo-oligosaccharide DP8/GF7] | 5.1 |  |
| CC[C@@H](CO)NCCN[C@@H](CC)CO [Ethambutol (dihydrochloride)] | -0.1 |  |
| C[C@]1(Cn2ccnn2)[C@H](C(=O)O)N2C(=O)C[C@H]2S1(=O)=O [Tazobactam] | -0.1 |  |
| C=CC1CNC(=S)O1 (racemic) [DL-Goitrin] | -1 |  |
| O=c1cc(-c2ccccc2)oc2c1ccc1ccccc12 [Alpha-Naphthoflavone] | 65.1 |  |
| COc1ccc(/C=C/c2cc(O)cc(O)c2)cc1 [4'-Methoxyresveratrol] | 1.4 |  |
| O=P(O)(O)OC(CO)CO [β-Glycerophosphate (disodium salt hydrate)] | -0.3 |  |
| O=C(/C=C/c1ccc(O)c(O)c1)O[C@@H]1C[C@](O)(C(=O)O)C[C@@H](O)[C@H]1O [Chlorogenic acid] | -0.2 |  |
| C[C@@H]1O[C@@H](OC[C@H]2O[C@@H](Oc3cc(O)c4c(=O)cc(-c5ccc(O)cc5)oc4c3)[C@H](O)[C@@H](O)[C@@H]2O)[C@H](O)[C@H](O)[C@H]1O [Isorhoifolin] | 0 |  |
| C=CCOC(Cn1ccnc1)c1ccc(Cl)cc1Cl (centres unmarked) [Imazalil] | 23.5 |  |
| Cc1cc2c(C(C)C)c(O)c(O)c(C=O)c2c(O)c1-c1c(C)cc2c(C(C)C)c(O)c(O)c(C=O)c2c1O [Gossypol] | -0.1 |  |
| C/C=C(\C)C(=O)O[C@H]1C[C@@H](OC(C)=O)[C@@]2(C(=O)OC)CO[C@H]3[C@@H](O)[C@@](C)([C@]45O[C@@]4(C)[C@H]4C[C@@H]5O[C@@H]5OC=C[C@@]54O)[C@H]4[C@]1(CO[C@]4(O)C(=O)OC)[C@@H]32 [Azadirachtin] | 0.1 |  |
| C[C@@H]1CCCCCCCCCCCCC(=O)C1 [Muscone] | 2.5 |  |
| CC(C)=CCC[C@](C)(O[C@@H]1O[C@H](CO[C@@H]2O[C@H](CO)[C@@H](O)[C@H](O)[C@H]2O)[C@@H](O)[C@H](O)[C@H]1O)[C@H]1CC[C@]2(C)[C@@H]1[C@H](O)C[C@@H]1[C@@]3(C)CC[C@H](O[C@@H]4O[C@H](CO)[C@@H](O)[C@H](O)[C@H]4O[C@@H]4O[C@H](CO)[C@@H](O)[C@H](O)[C@H]4O[C@@H]4OC[C@@H](O)[C@H](O)[C@H]4O)C(C)(C)[C@@H]3CC[C@]12C [Notoginsenoside Fa] | 0.1 |  |
| CC(C)CC(=O)N[C@H](C(=O)N[C@H](C(=O)N[C@@H](CC(C)C)[C@@H](O)CC(=O)N[C@@H](C)C(=O)N[C@@H](CC(C)C)[C@@H](O)CC(=O)O)C(C)C)C(C)C [Pepstatin (Trifluoroacetate)] (Isovaleryl-VV[Sta]A[Sta]-OH) |  | -3.4 |
| CC(=O)OCC(=O)[C@H]1CC[C@H]2[C@@H]3CCC4=CC(=O)CC[C@]4(C)[C@H]3CC[C@]12C [Deoxycorticosterone acetate] | -0.1 |  |
| COc1ccc(-c2cc(=O)c3ccccc3o2)cc1OC [3',4'-Dimethoxyflavone] | 6.6 |  |
| O=C(O)c1ccc(C(=O)O)cc1 [Terephthalic acid] | 0.5 |  |
| COc1ccc(O)c(C(=O)O)c1 [5-Methoxysalicylic acid] | -0.5 |  |
| Cc1c(O)c(C)c2c(c1O)C(=O)[C@H](Cc1ccc3c(c1)OCO3)CO2 [Methylophiopogonanone A] | -1 |  |
| COC(=O)/C=C/c1ccccc1 [Methyl cinnamate] | -0.6 |  |
| C[C@H]1[C@H](OC(=O)CCC(=O)O)O[C@@H]2O[C@@]3(C)CC[C@H]4[C@H](C)CC[C@@H]1[C@@]24OO3 [Artesunate] | -0.8 |  |
| CCCCCCCCCCCCOC(=O)CS(=O)(=O)O [Sodium lauryl sulfoacetate] | 18 |  |
| COc1ccc(C(=O)O)cc1OC [Veratric acid] | 5.5 |  |
